At least one compound was matched to its structure with a doubt left.
Experiments:
[1] = target: purified human acetylcholinesterase (Homo sapiens, UniProt P22303); format: biochemical; conditions: phosphate buffer 0.1 M pH 7.4, 0.1% Tween 20; absorbance at 412 nm; measured three times, average ± standard deviation
Experimental: (§1) To investigate the hydrolysis rate and specificity of each of (1a) and (2a), the hydrolysis rate in a solution of each of purified human acetylcholinesterase and purified human butyrylcholinesterase was measured by the Ellman method, and was compared with those of acetyl thiocholine and acetyl-[…]. To 3 ml of a solution of each enzyme whose concentration was adjusted with a phosphate buffer (0.1 M, pH 7.4) containing 0.1% of Tween 20, 0.1 ml of a solution (5 mM) of 5,5′-dithio-bis(2-nitrobenzoic acid) was added. To these mixtures, the substrates were respectively added in an amount of 0.02 ml (75 mM), and the absorbance (mAbs) at a wavelength of 412 nm was measured.
(§2) The values in the Table represent the changes in absorbance per minute measured three times in the form of average value±standard deviation.
The values represent the absorbance (Abs) measured three times in the form of average value±standard deviation.

By UniProt entry, the sequences of proteins in these tests, tags left out. Residues count along the entry.
UniProt P22303, 32-614: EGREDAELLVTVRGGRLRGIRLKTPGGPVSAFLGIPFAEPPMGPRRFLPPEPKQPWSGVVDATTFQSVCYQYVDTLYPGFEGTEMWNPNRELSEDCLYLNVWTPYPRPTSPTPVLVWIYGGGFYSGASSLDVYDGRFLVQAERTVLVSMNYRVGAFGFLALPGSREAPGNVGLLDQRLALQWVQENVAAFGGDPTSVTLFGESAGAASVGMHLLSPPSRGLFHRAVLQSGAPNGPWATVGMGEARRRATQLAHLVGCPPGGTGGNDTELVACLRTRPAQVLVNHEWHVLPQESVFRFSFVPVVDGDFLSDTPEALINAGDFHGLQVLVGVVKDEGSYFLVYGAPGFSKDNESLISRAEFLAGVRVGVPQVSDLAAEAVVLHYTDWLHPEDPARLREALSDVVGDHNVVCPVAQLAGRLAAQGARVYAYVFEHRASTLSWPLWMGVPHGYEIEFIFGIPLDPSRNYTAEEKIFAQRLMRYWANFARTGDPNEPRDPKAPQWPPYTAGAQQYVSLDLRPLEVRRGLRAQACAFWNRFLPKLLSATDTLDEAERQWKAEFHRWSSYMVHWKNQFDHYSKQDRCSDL
UniProt P06276, 29-602: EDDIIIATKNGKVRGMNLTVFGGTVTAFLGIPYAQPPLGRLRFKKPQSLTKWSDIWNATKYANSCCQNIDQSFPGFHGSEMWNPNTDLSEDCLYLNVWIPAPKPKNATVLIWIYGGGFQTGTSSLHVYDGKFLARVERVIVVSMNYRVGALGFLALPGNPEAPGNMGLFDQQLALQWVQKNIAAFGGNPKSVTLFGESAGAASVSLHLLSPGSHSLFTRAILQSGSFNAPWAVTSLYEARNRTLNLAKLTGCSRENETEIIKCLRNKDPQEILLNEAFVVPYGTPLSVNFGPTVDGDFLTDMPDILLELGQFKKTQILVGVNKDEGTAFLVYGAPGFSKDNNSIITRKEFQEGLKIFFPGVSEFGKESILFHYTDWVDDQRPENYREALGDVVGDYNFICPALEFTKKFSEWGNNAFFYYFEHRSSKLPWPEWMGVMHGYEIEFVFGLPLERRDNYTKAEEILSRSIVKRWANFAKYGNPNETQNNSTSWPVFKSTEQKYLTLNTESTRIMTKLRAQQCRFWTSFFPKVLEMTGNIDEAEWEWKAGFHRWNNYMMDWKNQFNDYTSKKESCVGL

[2] = target: purified human butyrylcholinesterase (Homo sapiens, UniProt P06276); assay: Hydrolysis rate with purified human butyrylcholinesterase by the Ellman method; format: biochemical
Experimental: as §1, §2

[3] = Spontaneous hydrolysis rate in the buffer solution (Ellman method); format: physicochemical; conditions: buffer solution without enzyme; absorbance at 412 nm; measured three times, average ± standard deviation

CC(=O)SCC[N+](C)(C)C [Acetyl thiocholine, reference compound]
hydrolysis rate with Acetylcholinesterase (change in absorbance per minute) [1]: 37 ± 0.37 ΔmAbs/minute
hydrolysis rate with butyrylcholinesterase compared with spontaneous hydrolysis in the buffer solution ([2]; comparison of Table 1 values): significantly higher
hydrolysis rate with Butyrylcholinesterase (change in absorbance per minute) ([2]; phosphate buffer 0.1 M pH 7.4, 0.1% Tween 20, absorbance at 412 nm, measured three times, average ± standard deviation): 18 ± 0.11 ΔmAbs/minute
spontaneous hydrolysis rate (change in absorbance per minute) [3]: 0.21 ± 0.021 ΔmAbs/minute

Source: US20120107854A1, “REAGENT FOR MEASUREMENT OF CHOLINESTERASE ACTIVITY” (NATIONAL INSTITUTE OF RADIOLOGICAL SCIENCES, priority 2009, published 2012)
